Substitutions are numbered along the chain they refer to. Results are given in words; binding and its absence hold for the method and conditions named. In cells and extracts the contact can be indirect. Some entries that bind do so weakly or less than the wild type. Tags and fused reporters may be left off the sequences shown.
T1: RFP-SPPL3 D271A (catalytically inactive SPPL3 mutant) (UniProt Q8TCT6)
T1 sequence: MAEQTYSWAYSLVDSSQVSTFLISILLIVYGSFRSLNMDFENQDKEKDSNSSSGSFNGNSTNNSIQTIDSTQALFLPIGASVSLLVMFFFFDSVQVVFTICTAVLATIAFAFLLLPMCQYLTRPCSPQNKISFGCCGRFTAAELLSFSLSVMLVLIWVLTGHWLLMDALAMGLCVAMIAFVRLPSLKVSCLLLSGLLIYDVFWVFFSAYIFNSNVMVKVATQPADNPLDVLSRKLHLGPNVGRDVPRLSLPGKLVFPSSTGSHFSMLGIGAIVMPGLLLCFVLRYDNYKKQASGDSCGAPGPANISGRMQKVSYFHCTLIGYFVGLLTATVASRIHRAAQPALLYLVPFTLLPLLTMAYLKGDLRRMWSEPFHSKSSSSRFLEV

T2: RFP-SPPL3 (signal peptide peptidase like 3, wild type) (UniProt Q8TCT6)
T2 sequence: T1 sequence with A271D

B1: FLAG-B3GNT5 (enzyme, UniProt Q9BYG0 1-378)
chain: MRMLVSGRRVKKWQLIIQLFATCFLASLMFFWEPIDNHIVSHMKSYSYRYLINSYDFVNDTLSLKHTSAGPRYQYLINHKEKCQAQDVLLLLFVKTAPENYDRRSGIRRTWGNENYVRSQLNANIKTLFALGTPNPLEGEELQRKLAWEDQRYNDIIQQDFVDSFYNLTLKLLMQFSWANTYCPHAKFLMTADDDIFIHMPNLIEYLQSLEQIGVQDFWIGRVHRGAPPIRDKSSKYYVSYEMYQWPAYPDYTAGAAYVISGDVAAKVYEASQTLNSSLYIDDVFMGLCANKIGIVPQDHVFFSGEGKTPYHPCIYEKMMTSHGHLEDLQDLWKNATDPKVKTISKGFFGQIYCRLMKIILLCKISYVDTYPCRAAFI
B2: FLAG-B4GALNT1 (enzyme, UniProt Q00973 1-533)
chain: MWLGRRALCALVLLLACASLGLLYASTRDAPGLRLPLAPWAPPQSPRRPELPDLAPEPRYAHIPVRIKEQVVGLLAWNNCSCESSGGGLPLPFQKQVRAIDLTKAFDPAELRAASATREQEFQAFLSRSQSPADQLLIAPANSPLQYPLQGVEVQPLRSILVPGLSLQAASGQEVYQVNLTASLGTWDVAGEVTGVTLTGEGQADLTLVSPGLDQLNRQLQLVTYSSRSYQTNTADTVRFSTEGHEAAFTIRIRHPPNPRLYPPGSLPQGAQYNISALVTIATKTFLRYDRLRALITSIRRFYPTVTVVIADDSDKPERVSGPYVEHYLMPFGKGWFAGRNLAVSQVTTKYVLWVDDDFVFTARTRLERLVDVLERTPLDLVGGAVREISGFATTYRQLLSVEPGAPGLGNCLRQRRGFHHELVGFPGCVVTDGVVNFFLARTDKVREVGFDPRLSRVAHLEFFLDGLGSLRVGSCSDVVVDHASKLKLPWTSRDAGAETYARYRYPGSLDESQMAKHRLLFFKHRLQCMTSQ
B3: FLAG-ST3GAL5 (enzyme, UniProt Q9UNP4 1-418)
chain: MRTKAAGCAERRPLQPRTEAAAAPAGRAMPSEYTYVKLRSDCSRPSLQWYTRAQSKMRRPSLLLKDILKCTLLVFGVWILYILKLNYTTEECDMKKMHYVDPDHVKRAQKYAQQVLQKECRPKFAKTSMALLFEHRYSVDLLPFVQKAPKDSEAESKYDPPFGFRKFSSKVQTLLELLPEHDLPEHLKAKTCRRCVVIGSGGILHGLELGHTLNQFDVVIRLNSAPVEGYSEHVGNKTTIRMTYPEGAPLSDLEYYSNDLFVAVLFKSVDFNWLQAMVKKETLPFWVRLFFWKQVAEKIPLQPKHFRILNPVIIKETAFDILQYSEPQSRFWGRDKNVPTIGVIAVVLATHLCDEVSLAGFGYDLNQPRTPLHYFDSQCMAAMNFQTMHNVTTETKFLLKLVKEGVVKDLSGGIDREF

Experiments:
[1] = target: T1, RFP-SPPL3 D271A (catalytically inactive SPPL3 mutant); assay: co-IP
[2] = target: T2, RFP-SPPL3 (signal peptide peptidase like 3, wild type); assay: co-IP

| Binder | binding [1] | binding [2] |
| --- | --- | --- |
| B1 | binds | no binding |
| B2 | no binding | no binding |
| B3 | no binding | no binding |
